US20150094211

Chains of the proteins cited; added tags and fusions are not shown.
UniProt P19821, whole entry: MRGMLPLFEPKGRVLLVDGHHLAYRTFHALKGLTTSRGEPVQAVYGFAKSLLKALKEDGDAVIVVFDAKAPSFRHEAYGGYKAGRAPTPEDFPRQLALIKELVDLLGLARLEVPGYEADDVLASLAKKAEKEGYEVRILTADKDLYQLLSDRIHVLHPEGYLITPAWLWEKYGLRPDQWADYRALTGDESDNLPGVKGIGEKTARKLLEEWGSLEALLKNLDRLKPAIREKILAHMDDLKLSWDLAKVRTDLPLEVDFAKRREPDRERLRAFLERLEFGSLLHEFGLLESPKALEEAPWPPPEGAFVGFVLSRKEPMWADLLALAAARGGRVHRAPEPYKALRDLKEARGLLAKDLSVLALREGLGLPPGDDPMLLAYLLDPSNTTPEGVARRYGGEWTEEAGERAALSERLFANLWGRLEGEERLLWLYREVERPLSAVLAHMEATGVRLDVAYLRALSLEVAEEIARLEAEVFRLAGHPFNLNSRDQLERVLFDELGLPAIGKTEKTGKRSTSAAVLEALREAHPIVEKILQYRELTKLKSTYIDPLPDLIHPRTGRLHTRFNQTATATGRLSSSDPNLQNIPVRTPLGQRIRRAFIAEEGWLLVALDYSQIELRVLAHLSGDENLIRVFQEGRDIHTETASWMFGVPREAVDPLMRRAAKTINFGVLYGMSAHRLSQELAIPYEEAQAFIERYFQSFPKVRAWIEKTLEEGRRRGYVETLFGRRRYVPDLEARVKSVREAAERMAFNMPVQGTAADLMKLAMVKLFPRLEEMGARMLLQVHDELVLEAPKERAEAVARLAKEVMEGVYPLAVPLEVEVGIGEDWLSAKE

Target: Taq DNA polymerase (wild type) (UniProt P19821)
Assay: binding assay
Conditions: [fluorescein-dT at 34]; dissociates 14-fold faster than D732R; too fast to record in FIG. 11 experiment; purified recombinant protein; label: fluorescein-dT at N (position 34); folded or branched DNA; letters built from the parent sequence and the stated change

Question: Does “TTTTTTTGCAGGTGACAGGTTTTTCCTGTCACCTGC [oligo 221]” bind?
Answer: binds more weakly

Weaker means in comparison with the reference protein, sequence or condition of that experiment.
